# The other results are listed elsewhere or left out.
# What was measured:
# Assay in all cases: glycan array binding signal (z-score within array); higher = stronger binding
# Conditions in all cases: glycan notation: IUPAC condensed, linker removed
# [1] = biological target: Fuc(a1-2)Gal
# Method in brief: (§1)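 From the Consortium for Functional Glycomics database, 3228 arrays were curated, keeping only those whose protein sequence was available. Binding is given as a within-array Z-score averaged across arrays sharing a protein sequence and across linkers. Negative Z-scores can be read as non-binding.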
# [2] = biological target: Fuc(a1-2)Gal(b1-3)GalNAc
# Method in brief: as §1
# [3] = biological target: Fuc(a1-2)Gal(b1-3)GalNAc(a1-3)[Fuc(a1-2)]Gal(b1-4)Glc
# Method in brief: as §1
# [4] = biological target: Fuc(a1-2)Gal(b1-3)GalNAc(a1-3)[Fuc(a1-2)]Gal(b1-4)GlcNAc
# Method in brief: as §1
# [5] = biological target: Fuc(a1-2)Gal(b1-3)GalNAc(b1-3)Gal
# Method in brief: as §1
# [6] = biological target: Fuc(a1-2)Gal(b1-3)GalNAc(b1-3)Gal(a1-4)Gal(b1-4)Glc
# Method in brief: as §1
# [7] = biological target: Fuc(a1-2)Gal(b1-3)GalNAc(b1-4)[Neu5Ac(a2-3)]Gal(b1-4)Glc
# Method in brief: as §1
# [8] = biological target: Fuc(a1-2)Gal(b1-3)GlcNAc
# Method in brief: as §1
# [9] = biological target: Fuc(a1-2)Gal(b1-3)GlcNAc(b1-2)Man(a1-3)[Fuc(a1-2)Gal(b1-3)GlcNAc(b1-2)Man(a1-6)]Man(b1-4)GlcNAc(b1-4)GlcNAc
# Method in brief: as §1
# [10] = biological target: Fuc(a1-2)Gal(b1-3)GlcNAc(b1-2)Man(a1-3)[Fuc(a1-2)Gal(b1-3)GlcNAc(b1-2)Man(a1-6)]Man(b1-4)GlcNAc(b1-4)[Fuc(a1-6)]GlcNAc
# Method in brief: as §1
# [11] = biological target: Fuc(a1-2)Gal(b1-3)GlcNAc(b1-3)Gal(b1-4)Glc
# Method in brief: as §1
# [12] = biological target: Fuc(a1-2)Gal(b1-3)GlcNAc(b1-3)GalNAc
# Method in brief: as §1
# [13] = biological target: Fuc(a1-2)Gal(b1-3)GlcNAc(b1-3)[Fuc(a1-2)Gal(b1-3)GlcNAc(b1-6)]GalNAc
# Method in brief: as §1
# [14] = biological target: Fuc(a1-2)Gal(b1-3)GlcNAc(b1-3)[Gal(b1-4)GlcNAc(b1-6)]Gal(b1-4)Glc
# Method in brief: as §1
# [15] = biological target: Fuc(a1-2)Gal(b1-3)GlcNAc(b1-3)[Neu5Ac(a2-6)Gal(b1-4)GlcNAc(b1-6)]Gal(b1-4)Glc
# Method in brief: as §1
# [16] = biological target: Fuc(a1-2)Gal(b1-3)GlcNAc6S
# Method in brief: as §1
# [17] = biological target: Fuc(a1-2)Gal(b1-3)[Fuc(a1-4)]GlcNAc
# Method in brief: as §1
# [18] = biological target: Fuc(a1-2)Gal(b1-3)[Fuc(a1-4)]GlcNAc(b1-2)Man(a1-3)[Fuc(a1-2)Gal(b1-3)[Fuc(a1-4)]GlcNAc(b1-2)Man(a1-3)]Man(b1-4)GlcNAc(b1-4)GlcNAc
# Method in brief: as §1
# [19] = biological target: Fuc(a1-2)Gal(b1-3)[Fuc(a1-4)]GlcNAc(b1-2)Man(a1-3)[Fuc(a1-2)Gal(b1-3)[Fuc(a1-4)]GlcNAc(b1-2)Man(a1-6)]Man(b1-4)GlcNAc(b1-4)[Fuc(a1-6)]GlcNAc(b1-4)[Fuc(a1-6)]GlcNAc
# Method in brief: as §1
# [20] = biological target: Fuc(a1-2)Gal(b1-3)[Fuc(a1-4)]GlcNAc(b1-3)[Fuc(a1-3)[Gal(b1-4)]GlcNAc(b1-6)]Gal(b1-4)Glc
# Method in brief: as §1
# [21] = biological target: Fuc(a1-2)Gal(b1-3)[Fuc(a1-4)]GlcNAc(b1-3)[Gal(b1-4)GlcNAc(b1-6)]Gal(b1-4)Glc
# Method in brief: as §1
# [22] = biological target: Fuc(a1-2)Gal(b1-4)Fuc(a1-3)]GlcNAc(b1-2)Man(a1-3)[Fuc(a1-2)Gal(b1-4)[Fuc(a1-3)]GlcNAc(b1-2)Man(a1-6)]Man(b1-4)GlcNAc(b1-4)GlcNAc
# Method in brief: as §1
# [23] = biological target: Fuc(a1-2)Gal(b1-4)Glc
# Method in brief: as §1
# [24] = biological target: Fuc(a1-2)Gal(b1-4)Glc6S
# Method in brief: as §1
# [25] = biological target: Fuc(a1-2)Gal(b1-4)GlcNAc
# Method in brief: as §1
# [26] = biological target: Fuc(a1-2)Gal(b1-4)GlcNAc(b1-2)Man
# Method in brief: as §1
# [27] = biological target: Fuc(a1-2)Gal(b1-4)GlcNAc(b1-2)Man(a1-3)[Fuc(a1-2)Gal(b1-4)GlcNAc(b1-2)Man(a1-6)]Man(b1-4)GlcNAc(b1-4)GlcNAc
# Method in brief: as §1
# [28] = biological target: Fuc(a1-2)Gal(b1-4)GlcNAc(b1-2)Man(a1-3)[Fuc(a1-2)Gal(b1-4)GlcNAc(b1-2)Man(a1-6)]Man(b1-4)GlcNAc(b1-4)[Fuc(a1-6)]GlcNAc
# Method in brief: as §1
# [29] = biological target: Fuc(a1-2)Gal(b1-4)GlcNAc(b1-2)[Fuc(a1-2)Gal(b1-4)GlcNAc(b1-4)]Man(a1-3)[Fuc(a1-2)Gal(b1-4)GlcNAc(b1-2)Man(a1-6)]Man(b1-4)GlcNAc(b1-4)GlcNAc
# Method in brief: as §1
# [30] = biological target: Fuc(a1-2)Gal(b1-4)GlcNAc(b1-3)Gal(b1-4)GlcNAc
# Method in brief: as §1
# [31] = biological target: Fuc(a1-2)Gal(b1-4)GlcNAc(b1-3)Gal(b1-4)GlcNAc(b1-2)Man(a1-3)[Fuc(a1-2)Gal(b1-4)GlcNAc(b1-3)Gal(b1-4)GlcNAc(b1-2)Man(a1-6)]Man(b1-4)GlcNAc(b1-4)GlcNAc
# Method in brief: as §1
# [32] = biological target: Fuc(a1-2)Gal(b1-4)GlcNAc(b1-3)Gal(b1-4)GlcNAc(b1-3)Gal(b1-4)GlcNAc
# Method in brief: as §1
# [33] = biological target: Fuc(a1-2)Gal(b1-4)GlcNAc(b1-3)GalNAc
# Method in brief: as §1
# [34] = biological target: Fuc(a1-2)Gal(b1-4)GlcNAc(b1-3)[Fuc(a1-2)Gal(b1-4)GlcNAc(b1-6)]GalNAc
# Method in brief: as §1
# [35] = biological target: Fuc(a1-2)Gal(b1-4)GlcNAc(b1-3)[Fuc(a1-3)[Gal(b1-4)]GlcNAc(b1-6)]Gal(b1-4)Glc
# Method in brief: as §1
# [36] = biological target: Fuc(a1-2)Gal(b1-4)GlcNAc(b1-6)GalNAc
# Method in brief: as §1
# [37] = biological target: Fuc(a1-2)Gal(b1-4)GlcNAc6S
# Method in brief: as §1
# [38] = biological target: Fuc(a1-2)Gal(b1-4)[Fuc(a1-3)]GlcNAc
# Method in brief: as §1
# [39] = biological target: Fuc(a1-2)Gal(b1-4)[Fuc(a1-3)]GlcNAc(b1-2)Man(a1-3)[Fuc(a1-2)Gal(b1-4)[Fuc(a1-3)]GlcNAc(b1-2)Man(a1-6)]Man(b1-4)GlcNAc(b1-4)[Fuc(a1-6)]GlcNAc
# Method in brief: as §1
# [40] = biological target: Fuc(a1-2)Gal(b1-4)[Fuc(a1-3)]GlcNAc(b1-2)[Fuc(a1-2)Gal(b1-4)[Fuc(a1-3)]GlcNAc(b1-4)]Man(a1-3)[Fuc(a1-2)Gal(b1-4)[Fuc(a1-3)]GlcNAc(b1-2)Man(a1-6)]Man(b1-4)GlcNAc(b1-4)GlcNAc
# Method in brief: as §1
# [41] = biological target: Fuc(a1-2)Gal(b1-4)[Fuc(a1-3)]GlcNAc(b1-3)Gal(b1-4)[Fuc(a1-3)]GlcNAc
# Method in brief: as §1
# [42] = biological target: Fuc(a1-2)Gal(b1-4)[Fuc(a1-3)]GlcNAc(b1-3)Gal(b1-4)[Fuc(a1-3)]GlcNAc(b1-3)Gal(b1-4)[Fuc(a1-3)]GlcNAc
# Method in brief: as §1
# [43] = biological target: Fuc(a1-2)Gal(b1-4)[Fuc(a1-3)]GlcNAc(b1-3)GalNAc
# Method in brief: as §1
# [44] = biological target: Fuc(a1-2)Gal(b1-4)[Fuc(a1-3)]GlcNAc(b1-3)[Neu5Ac(a2-6)Gal(b1-4)GlcNAc(b1-6)]Gal(b1-4)Glc
# Method in brief: as §1
# [45] = biological target: Fuc(a1-2)Gal3S(b1-4)GlcNAc
# Method in brief: as §1
binder,measurement,setting,value
BIp1-His (Cryptococcus neoformans) (protein) MFTKIFVALFAATAVLSAPVESAEKRITHTGRATFYSPSVGIGACGWQNTDEELVVALNAPQYALNADHNCGQSVRITNEQNGNQEIAKVVDLCPGCNDGDLDMSPALFGALNNNDFDQGVFPISWNFLPRDDTSSSN,glycan array binding signal (z-score),[1],0.588
same,glycan array binding signal (z-score),[2],-0.387
same,glycan array binding signal (z-score),[3],0.963
same,glycan array binding signal (z-score),[4],-1.35
same,glycan array binding signal (z-score),[5],0.007
same,glycan array binding signal (z-score),[6],0.19
same,glycan array binding signal (z-score),[7],0.213
same,glycan array binding signal (z-score),[8],-0.134
same,glycan array binding signal (z-score),[9],0.268
same,glycan array binding signal (z-score),[10],-0.097
same,glycan array binding signal (z-score),[11],-0.935
same,glycan array binding signal (z-score),[12],-0.078
same,glycan array binding signal (z-score),[13],-0.401
same,glycan array binding signal (z-score),[14],-0.39
same,glycan array binding signal (z-score),[15],-0.593
same,glycan array binding signal (z-score),[16],-0.724
same,glycan array binding signal (z-score),[17],-0.006
same,glycan array binding signal (z-score),[18],0.268
same,glycan array binding signal (z-score),[19],0.269
same,glycan array binding signal (z-score),[20],-0.86
same,glycan array binding signal (z-score),[21],0.718
same,glycan array binding signal (z-score),[22],1.55
same,glycan array binding signal (z-score),[23],-0.355
same,glycan array binding signal (z-score),[24],0.441
same,glycan array binding signal (z-score),[25],-0.913
same,glycan array binding signal (z-score),[26],-0.202
same,glycan array binding signal (z-score),[27],-0.761
same,glycan array binding signal (z-score),[28],-0.228
same,glycan array binding signal (z-score),[29],1.58
same,glycan array binding signal (z-score),[30],-0.893
same,glycan array binding signal (z-score),[31],1.43
same,glycan array binding signal (z-score),[32],0.398
same,glycan array binding signal (z-score),[33],0.809
same,glycan array binding signal (z-score),[34],0.738
same,glycan array binding signal (z-score),[35],0.792
same,glycan array binding signal (z-score),[36],-0.477
same,glycan array binding signal (z-score),[37],0.204
same,glycan array binding signal (z-score),[38],-0.388
same,glycan array binding signal (z-score),[39],0.101
same,glycan array binding signal (z-score),[40],0.32
same,glycan array binding signal (z-score),[41],0.314
same,glycan array binding signal (z-score),[42],-0.224
same,glycan array binding signal (z-score),[43],0.112
same,glycan array binding signal (z-score),[44],-0.389
same,glycan array binding signal (z-score),[45],-0.089

# Reformatted tab-delimited: entries from further up.
binder	measurement	setting	value
BIp1-His (Cryptococcus neoformans) (protein) MFTKIFVALFAATAVLSAPVESAEKRITHTGRATFYSPSVGIGACGWQNTDEELVVALNAPQYALNADHNCGQSVRITNEQNGNQEIAKVVDLCPGCNDGDLDMSPALFGALNNNDFDQGVFPISWNFLPRDDTSSSN	glycan array binding signal (z-score)	[1]	0.588
same	glycan array binding signal (z-score)	[15]	-0.593
same	glycan array binding signal (z-score)	[16]	-0.724

# From the supplement of paper PMC8728848
